Values quoted from earlier work as cited in patent US5432274A, “Redox dye and method of preparation thereof using 2-hydroxypropyl-β-cyclodextrin and 1,1'-dimethylferrocene” (National Research Council of Canada, priority 1993, dated 1995).
For at least one compound, name, drawing or mass did not settle the structure.

Conditions: cited from earlier work

C=C[c-]1cccc1.[Fe+2].c1cc[cH-]c1 [Vinyl]
E° redox potential: 250 mV
